This test can be described thus: qHTS Assay for Lipid Storage Modulators in Drosophila S3 Cells.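 As to cell number change: cells counted by Cell Tracker Red CMTPX staining in the red channel.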 Particulars: BODIPY lipid droplet fluorescence, 18-24 h; for cell number change: measured here: cell count max response, cells fed with added oleic acid. An outline of the steps:
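Drosophila S3 cells got compounds at several concentrations plus oleic acid (400 uM solution). Laser-scanning cytometry with 488 nm excitation read lipid droplets at 500-530 nm and cells at 575-640 nm. Percent activity was relative to 20 uM Triacsin C.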
On the technique in general: Quantitative high-throughput screening tests each substance at several concentrations.

[1] abbreviates: measured here: cell number channel AC50, cells fed with added oleic acid.
Where [2] appears, read: measured here: lipid fluorescence (Fed channel) AC50, cells fed with added oleic acid.

Results on 61 compounds are retold here after PubChem BioAssay AID2685 (National Center for Advancing Translational Sciences (NCATS), 2010).

Each structure is given as a SMILES string. Several values for one entry are separate records, joined by “and”; a condition that tells them apart may be missing. Identical values can stand only once. The list shows a part of the results. These are further read-outs of the screen, such as a control signal, another cell line or another target. No call is given for them. Compounds called inactive in the main read-out are mostly missing here. Words in brackets tell the shape of the fitted curve; partial curves, single points and poor fits give uncertain potencies.

What is called AC50 is the midpoint of the concentration-response curve, whichever way the signal moves. High values mean weaker potency, low ones greater potency.

Turning to `O=S(=O)(Nc1ccc(S(=O)(=O)N2CCOCC2)cc1)c1ccc(Br)cc1`, the cell number change was -32.4%. Moreover, under setting [1], the AC50 is 14.6 µM [falling, partial curve, poor fit]. In addition, the AC50 under setting [2] was 0.206 µM [rising, single point].

In the case of `CCOC(=O)Cc1cnc(N)s1`, under setting [1], the half-maximal activity concentration (AC50) was 6.51 µM [rising, single point].

In the case of `O=C1NC(=S)N/C1=C\c1cccc([N+](=O)[O-])c1`, the cell number change was -63%. In addition, the half-maximal activity concentration (AC50) under setting [1] was 3.26 µM [falling, full curve]. Further, the AC50 under setting [2] was 5.8 µM [falling, single point]. On to `Cc1ccc(NC(=O)C2CC(=O)N(Cc3ccco3)C2)cc1` (configuration not stated), for which the cell number change turned out to be 0.387%. On the same count and under the same terms, for `COc1cc(S(=O)(=O)N(Cc2ccc(C)cc2)C2CCCCC2)ccc1-n1cnnn1` the value was -29.2%. `COC(=O)c1cc(NC(=O)c2ccoc2C)cc(C(=O)OC)c1`: the cell number change is -6.54%. Also, under setting [2], the half-maximal activity concentration (AC50) is 0.082 µM [rising, full curve, poor fit]. Take `O=C(CSc1ccccn1)N1CCN(c2cccc(Cl)c2)CC1`: the AC50 under setting [2] is 4.11 µM [rising, single point]. `COc1ccc(NC(=O)CCC(=O)OCc2ccc(C(=O)Oc3ccc(Cl)cc3)cc2)cc1`: the cell number change stood at 12.1%. Turning to `COc1cccc2cc(-c3csc(CCn4nc(C)cc4C)n3)c(=O)oc12`, the cell number change was -20.6%. For the same compound, the concentration at half-maximal activity (AC50) under setting [2] was 1.03 µM [rising, single point]. As to `Cc1nn(-c2ccccc2)c(N)c1N=Nc1ccccc1`, the cell number change was found to be 11.8%. As for `CCOC(=O)c1ccc(NC(=O)Cc2cccs2)cc1`, the cell number change is -0.275%. Consider `Cc1cccnc1NC(=O)Nc1ccc(F)cc1`, for which the cell number change stood at 35.7%. The half-maximal activity concentration (AC50) under setting [1] was 20.6 µM [rising, single point]. The AC50 under setting [2] is 25.9 µM [rising, single point]. In the case of `CN(Cc1ccccc1)S(=O)(=O)c1ccc(OCC(=O)N2CCC(C(N)=O)CC2)cc1`, the cell number change is -17.1%. Take `O=C(N[C@@H](Cc1ccccc1)C(=O)OCc1ccccc1)c1nc[nH]c1C(=O)N[C@@H](Cc1ccccc1)C(=O)OCc1ccccc1`: the half-maximal activity concentration (AC50) under setting [2] was 3.66 µM [falling, full curve].

As for `CCCCOC(=O)c1ccc(NC(=O)c2c(OC)cccc2OC)cc1`, the cell number change worked out at 18%. `O=C(Nc1ccc(Oc2ccc(NC(=O)Nc3ccc([N+](=O)[O-])cc3)cc2)cc1)Nc1ccc([N+](=O)[O-])cc1`: the cell number change is 22.1%. Moreover, the concentration at half-maximal activity (AC50) under setting [1] is 4.61 µM [rising, full curve, poor fit]. For the same compound, under setting [2], the half-maximal activity concentration (AC50) is 2.59 µM [falling, full curve]. As for `COC(=O)C1=[N+]([O-])OC(C(=O)OC)C1c1c[nH]c2ccccc12` (configuration not stated), the cell number change was -10.1%. Besides, the half-maximal activity concentration (AC50) under setting [1] was 0.411 µM [rising, full curve, poor fit]. Also, under setting [2], the AC50 is 6.51 µM [rising, partial curve, poor fit]. In the case of `Oc1c(C=C2N=c3ccccc3=N2)sc(=S)n1-c1ccc(F)cc1`, the cell number change is -25.6% and -32.5%. Moreover, the AC50 under setting [1] is 29.1 µM [falling, single point]. The AC50 under setting [2] was 29.1 µM [falling, single point] and 14.6 µM [falling, partial curve, poor fit].

For `O=C(CS(=O)(=O)c1ccccc1)c1cc2ccccc2oc1=O`, the cell number change is -1.22%. Further, the AC50 under setting [2] was 0.92 µM [falling, full curve, poor fit].

As for `CC(C)(C)c1[nH]nc2c1C(c1ccncc1)C(C#N)=C(N)O2` (configuration not stated), the cell number change is -1.1%. Regarding `Cn1ncc(Cl)c1C(=O)NCC1CCCO1` (configuration not stated), the cell number change was 14.5%. Under setting [2], the AC50 was 2.91 µM [rising, full curve, poor fit]. For the compound `CC(C)Cn1c(-c2ccccc2F)n[nH]c1=S`, the cell number change is -3.67%. Further, the AC50 under setting [2] is 6.51 µM [falling, single point]. For the compound `COc1ccc(C(=O)NCC(c2ccco2)N2CCc3ccccc32)c(OC)c1` (configuration not stated), the AC50 reads like this: under setting [1], 2.91 µM [rising, partial curve]; under setting [2], 2.59 µM [rising, partial curve]. `COc1ccccc1CNC(=O)CCCNC(=O)c1ccc(Cl)cc1`: the AC50 under setting [2] is 29.1 µM [rising, single point]. As for `O=C(Nc1ccccc1N1CCOCC1)c1ccc(Cl)nc1`, the cell number change is 16.3%. The AC50 under setting [1] was 0.00461 µM [falling, full curve, poor fit]. Moreover, the AC50 under setting [2] is 0.00517 µM [falling, full curve, poor fit]. As for `O=C(C1CCN(S(=O)(=O)c2cnc[nH]2)CC1)N1CCN(Cc2ccc3c(c2)OCO3)CC1`, the AC50 under setting [2] was 1.64 µM [falling, full curve]. Turning to `O=C(CCc1nc2ccccc2s1)Nc1cccnc1`, the cell number change was determined as 14.1%. Besides, under setting [1], the AC50 was 2.06 µM [falling, partial curve].

Regarding `CCCC1=C(C(=O)OCC)C(c2ccc(O)cc2)n2ncnc2N1` (configuration not stated), the cell number change is -9.55%. The AC50 under setting [2] was 2.06 µM [rising, full curve, poor fit]. As to `O=C1OC(c2cccs2)=N/C1=C/c1ccc(-c2cccc(C(=O)O)c2)o1`, the cell number change is -79.4%. Besides, the AC50 under setting [1] is 29.1 µM [falling, single point]. Take `O=C1CN(C(=S)Nc2ccccc2Cl)CCN1`: the cell number change was -0.611%. `O=C(Nc1ccc2oc(=O)ccc2c1)c1ccc(-c2ccccc2[N+](=O)[O-])o1`: the cell number change was -0.534%. Moreover, the AC50 under setting [2] was 1.84 µM [rising, partial curve]. With `COc1ccc2[nH]c(C)c(CCN3C(=O)C4C5C=CC(C5)C4C3=O)c2c1` (configuration not stated), the cell number change stood at 20.7%. Besides, the half-maximal activity concentration (AC50) under setting [2] was 0.231 µM [rising, full curve, poor fit]. `COc1ccc(N2CCN(C(=O)c3ccc(CNS(=O)(=O)c4ccc(C)cc4)cc3)CC2)cc1`: the cell number change was -36.9%. For the same compound, under setting [1], the AC50 is 16.4 µM [falling, single point]. The AC50 under setting [2] is 18.4 µM [falling, partial curve]. `COc1ccccc1N(CC(O)CN1CCC(C)CC1)S(=O)(=O)c1ccccc1` (configuration not stated): the cell number change was -21.8%. As to `CCC(C)NC(=S)NNC(=O)c1ccncc1` (configuration not stated), the cell number change was 1.28%. Under setting [1], the concentration at half-maximal activity (AC50) was 0.291 µM [rising, partial curve, poor fit]. Regarding `CN1CCN(C(=O)c2ccccc2[N+](=O)[O-])CC1`, the cell number change was -2.55%. Regarding `CC1=C(C(=O)Nc2ccccn2)C(c2cn(C)nc2C)C2=C(CCCC2=O)N1` (configuration not stated), the AC50 under setting [1] is 0.651 µM [rising, single point] and the AC50 under setting [2] is 2.91 µM [falling, single point]. With `Cc1ccc(S(=O)(=O)N(C)Cc2nc(-c3ccc(Br)cc3)no2)cc1`, the cell number change is 72.7%. In addition, the AC50 under setting [1] was 29.1 µM [rising, single point]. Regarding `Cc1nn(CC(=O)N2CCN(S(=O)(=O)c3ccccc3)CC2)c(C)c1[N+](=O)[O-]`, the cell number change was determined as 18%. Besides, the AC50 under setting [2] was 1.64 µM [falling, single point]. For the compound `O=C(c1cc2c(s1)CCCC2)N1CCN(Cc2ccc3c(c2)OCO3)CC1`, the cell number change was -17.8%. Under setting [2], the AC50 was 6.51 µM [rising, single point]. On to `Cc1ccc(N=Nc2c(N)[nH]n3c(=O)cc(C)nc23)cc1`, for which the cell number change was -38.1%. Besides, the AC50 under setting [1] was 29.1 µM [falling, single point]. In addition, the AC50 under setting [2] was 3.66 µM [rising, single point]. Consider `COc1cccc(NC(=O)CSc2nnc(-c3cccc(OC(C)C)c3)n2N)c1`, for which the cell number change was -0.14%. Moreover, the AC50 under setting [2] is 29.1 µM [rising, single point]. With `Cc1cc(=O)n2nc(N3CCCC(C(=O)NC(C)c4ccccc4)C3)sc2n1` (configuration not stated), the cell number change came out at 40%. In addition, under setting [1], the AC50 is 29.1 µM [rising, single point]. For the same compound, under setting [2], the AC50 is 20.6 µM [rising, single point]. Take `CCn1c(=O)cc(OCC(=O)N(C)C2CCCCC2)c2ccccc21`: the cell number change was -35.7%. Besides, the half-maximal activity concentration (AC50) under setting [1] is 29.1 µM [falling, single point]. The AC50 under setting [2] is 4.11 µM [rising, full curve, poor fit]. As to `CC(C)(C)c1cc2cccnc2n1Cc1cccc(Cl)c1`, the AC50 under setting [1] was 6.51 µM [falling, single point]. The same measure, in the same setting: for `Cc1cc(C)cc(N(CCC#N)C(=O)COC(=O)c2ccc(OCc3c(C)noc3C)cc2)c1` the value was 6.51 µM [falling, single point]. Regarding `O=C1c2nc3cc(-c4ccco4)[nH]n3c(=O)c2CN1C1CCCCC1`, the cell number change is -28.7%. For the same compound, under setting [2], the AC50 is 23.1 µM [falling, single point]. Regarding `O=C(O)c1cccc(S(=O)(=O)N2CCOCC2)c1`, the cell number change was -14.6%. Further, the half-maximal activity concentration (AC50) under setting [2] was 29.1 µM [falling, single point]. Turning to `Cc1ccn2c(C(=O)c3ccc(Cl)cc3)cnc2c1`, the cell number change stood at 57.1%. Further, under setting [1], the AC50 is 16.4 µM [rising, single point]. With `CCc1ccc(N=C2NC(=O)/C(=C/c3ccc(OCC(=O)O)c(OC)c3)S2)cc1`, the cell number change was -0.702%. In addition, under setting [2], the AC50 was 29.1 µM [rising, single point].

Consider `CCOc1cc(C(=O)N(C)CC(=O)Nc2cccc3ccccc23)ccc1OC`, for which the cell number change was -4.02%. The AC50 under setting [2] is 20.6 µM [falling, single point]. As to `C=CCn1c(NCCc2ccccc2)nc2c1c(=O)n(C)c(=O)n2C`, the cell number change was -74.7%. Moreover, the half-maximal activity concentration (AC50) under setting [2] is 29.1 µM [falling, single point]. For the compound `COc1ccc(OC)c(-n2c(-c3ccn[nH]3)n[nH]c2=S)c1`, the cell number change came out at 16.5%.

For the compound `c1ccc2c(c1)CCN(c1nc3ccccc3n3cnnc13)C2`, the cell number change was 76.5%. Further, the AC50 under setting [1] is 1.84 µM [rising, full curve]. For the same compound, under setting [2], the AC50 was 2.31 µM [rising, full curve]. Take `CCOc1ccc2oc(C(=O)N(CC)CC(=O)Nc3c(F)cccc3F)c(C)c2c1`: the AC50 under setting [2] was 0.116 µM [rising, full curve, poor fit]. For `CCOC(=O)N1CCN(C(=O)CN2C(=O)NC(c3ccccc3)(c3ccccc3)C2=O)CC1`, the cell number change stood at 29.5%.

In the case of `COC(=O)c1ccc(OCC(O)CNCC(c2ccc(OC)cc2)N(C)C)c(OC)c1` (configuration not stated), the cell number change was 5.88%. As to `O=C(CN1CCOCC1)Nc1ccc2c(c1)OCO2`, the cell number change came out at 63.9%.

Regarding `Cc1ccc2nc3c(c(N)c2c1)CCN3c1ccccc1`, the cell number change is -11.6%. Under setting [2], the AC50 was 0.0366 µM [rising, full curve, poor fit]. Regarding `CCc1nnc(NC(=O)c2ccc3nc(CC)c(CC)nc3c2)s1`, the cell number change was -3.92%. Besides, under setting [1], the AC50 was 6.51 µM [falling, single point].

For the compound `CC1=NN(c2nc(-c3ccc(C)cc3)cs2)C(=O)C1N=Nc1ccc2ccccc2c1` (configuration not stated), the cell number change amounted to 0.668%. The AC50 under setting [1] was 6.51 µM [falling, single point]. The AC50 under setting [2] is 6.51 µM [falling, partial curve, poor fit].
